PubChem BioAssay AID720505, Drosophila RNAi Screening Center – 2013
The deposit covers about 20,000 reagents; below is an unselected part of those that have a named target and a result. Over the whole deposit, about 2,100 (10%) were called active. 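Raw plate signals without normalisation; calls rest on control-based scores that were not deposited; replicate 2 separates called from uncalled poorly.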 No sequences are given here. Not given: the amount of reagent, the time to read-out.

Purpose: 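Fly regulators or components of the CRAC channel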 (primary screen)
Cells: Drosophila S2R+ cells
Reagents: long dsRNA against Drosophila genes
Treatment: thapsigargin (2 µM) in calcium-free buffer to empty internal stores, then 2 mM calcium added back
Measurement: 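Stores emptied by 2 µM thapsigargin without calcium, then 2 mM calcium re-added; fluo-4 fluorescence followed by FLIPR in 384-well plates, per-well averaged endpoint, raw; two screen passes, some wells retested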
Direction: calcium signal and retest calcium signal: higher = more calcium entry after store depletion
Active means: 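Knock-downs counted as hits when calcium entry dropped relative to STIM1 positive and Rho1 negative controls present on each plate; roughly 1500 genes called, with reductions of differing size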
Meaning of the calls: active = called as lowering calcium entry; inactive = not called

Target gene | PubChem SID | calcium signal, replicate 1 | calcium signal, replicate 2 | retest calcium signal, replicate 1 | retest calcium signal, replicate 2 | Outcome
sigmar | SID104184241 | 189 | 104 | – | – | inactive
CG13455 | SID104189794 | 81.9 | 126 | – | – | inactive
CG7016 | SID104195966 | 108 | 88.1 | – | – | inactive
lectin-21Ca | SID104180333 | 134 | 143 | – | – | inactive
CG2267 | SID104195227 | 216 | 189 | – | – | inactive
CG32591 | SID104198855 | 87 | 119 | – | – | inactive
CG17207 | SID104194990 | 179 | 127 | – | – | inactive
jim | SID104191681 | 155 | 76.1 | – | – | inactive
Psa | SID104187944 | 134 | 179 | – | – | inactive
CG15172 | SID104182265 | 133 | 126 | – | – | inactive
Swt1 | SID104199820 | 153 | 141 | – | – | inactive
CG16974 | SID104182343 | 86.9 | 129 | – | – | inactive
CG3815 | SID104198116 | 93.4 | 88.2 | – | – | inactive
robls54B | SID104185452 | 159 | 106 | – | – | inactive
MED8 | SID104186218 | 120 | 127 | – | – | inactive
Tsp26A | SID104182927 | 188 | 116 | – | – | inactive
Fbl6 | SID104186127 | 120 | 132 | – | – | inactive
scaf | SID104184641 | 127 | 97 | – | – | inactive
Mcm5 | SID104196527 | 152 | 106 | – | – | inactive
CG10654 | SID104189559 | 79.2 | 66.5 | – | – | inactive
NAT1 | SID104186646 | 185 | 175 | – | – | inactive
ICA69 | SID104191413 | 116 | 96.8 | – | – | inactive
raw | SID104183391 | 117 | 99.2 | – | – | inactive
raw | SID104183392 | 97.1 | 96.3 | – | – | inactive
Su(z)3 (retired record) | SID104187350 | 80.4 | 121 | – | – | inactive
Su(z)3 (retired record) | SID104202327 | 86.5 | 82.8 | – | – | inactive
px | SID104184500 | 172 | 98.3 | – | – | inactive
px | SID104202601 | 92.9 | 125 | – | – | inactive
CG4942 | SID104190254 | 142 | 110 | – | – | inactive
Adck5 | SID104190682 | 123 | 100 | – | – | inactive
fred | SID104180141 | 71.2 | 207 | – | – | active
fred | SID104180391 | 156 | 90.5 | 68.1 | 88 | inactive
fred | SID104180393 | 173 | 74.4 | – | – | inactive
fred | SID104180394 | 153 | 80.6 | – | – | inactive
fred | SID104201531 | 98.6 | 195 | – | – | inactive
Drl-2 | SID104185185 | 74 | 97.9 | – | – | inactive
Drl-2 | SID104185947 | 79.1 | 133 | – | – | inactive
Drl-2 | SID104186650 | 93.4 | 123 | – | – | inactive
MESR6 | SID104190512 | 134 | 89.6 | – | – | inactive
bigmax | SID104195273 | 64.7 | 110 | – | – | active
CG33476 | SID104202247 | 114 | 159 | – | – | inactive
CG31436 | SID104194453 | 204 | 140 | – | – | inactive
Cen | SID104182496 | 93.6 | 82.3 | – | – | inactive
CG2656 | SID104192376 | 122 | 128 | – | – | inactive
CG7720 | SID104196098 | 96 | 182 | – | – | inactive
CG7720 | SID104196099 | 73.7 | 120 | – | – | inactive
CG14174 | SID104189967 | 103 | 89 | – | – | inactive
CG1213 | SID104191983 | 104 | 207 | – | – | inactive
rst | SID104198620 | 114 | 159 | – | – | inactive
CG6867 | SID104199805 | 110 | 181 | 88.6 | 104 | inactive
glob1 | SID104196751 | 123 | 201 | – | – | inactive
Dora | SID104199406 | 141 | 120 | – | – | inactive
Dora | SID104199573 | 123 | 119 | – | – | inactive
Dora | SID104199826 | 122 | 101 | – | – | inactive
Dora | SID104199827 | 117 | 98.3 | – | – | inactive
hydra | SID104200289 | 71.6 | 171 | – | – | active
DCTN2-p50 | SID104186924 | 163 | 146 | – | – | inactive
Fpgs2 | SID104180392 | 147 | 75 | – | – | inactive
prd | SID104183389 | 99.9 | 105 | – | – | inactive
WDR79 | SID104182951 | 112 | 166 | – | – | inactive
Damm | SID104187185 | 107 | 167 | – | – | inactive
CG15643 | SID104199471 | 71.3 | 116 | – | – | active
CG15431 | SID104180238 | 107 | 123 | – | – | inactive
CG13116 | SID104182006 | 213 | 167 | 90.6 | 121 | inactive
CG13116 | SID104201560 | 93.2 | 176 | – | – | inactive
CG3280 (retired record) | SID104190148 | 96.5 | 106 | – | – | inactive
Bet1 | SID104189880 | 70.3 | 99.7 | – | – | active
rho-7 | SID104187096 | 106 | 123 | – | – | inactive
CG3335 | SID104190150 | 82.5 | 126 | – | – | inactive
CG31191 | SID104195006 | 240 | 165 | – | – | inactive
CG31191 | SID104195007 | 244 | 194 | – | – | inactive
Acp53C14c | SID104185418 | 78 | 138 | – | – | inactive
Rpt3 | SID104200075 | 60.9 | 83.3 | – | – | active
Tep1 | SID104183242 | 119 | 113 | – | – | inactive
Vajk4 | SID104186381 | 102 | 125 | – | – | inactive
Vajk4 | SID104186795 | 219 | 135 | – | – | inactive
lncRNA:CR32553 | SID104199021 | 69.9 | 100 | – | – | active
CG12341 | SID104185925 | 119 | 129 | – | – | inactive
Usp20-33 | SID104186988 | 185 | 102 | – | – | inactive
dan | SID104194198 | 243 | 304 | – | – | inactive
CG8578 | SID104199906 | 137 | 127 | – | – | inactive
CG2021 | SID104188338 | 89.3 | 61.3 | – | – | inactive
CG6403 | SID104195825 | 152 | 171 | – | – | inactive
Cp19 | SID104190913 | 128 | 93 | – | – | inactive
Sema5c | SID104191071 | 98.7 | 86.9 | – | – | inactive
QIL1 | SID104190680 | 59.7 | 132 | – | – | inactive
LanA | SID104190999 | 110 | 79.3 | – | – | inactive
CG31922 | SID104201380 | 151 | 70.9 | – | – | inactive
CG2278 | SID104198018 | 242 | 153 | – | – | inactive
Phb1 | SID104183355 | 92 | 130 | – | – | inactive
E23 | SID104180217 | 85.4 | 128 | – | – | inactive
E23 | SID104180385 | 71.9 | 130 | – | – | active
CG11113 | SID104185831 | 121 | 125 | – | – | inactive
sr | SID104196859 | 150 | 139 | – | – | inactive
PCID2 | SID104190614 | 109 | 142 | – | – | inactive
stac | SID104194184 | 141 | 135 | – | – | inactive
stac | SID104201735 | 109 | 204 | – | – | inactive
CG14237 | SID104194523 | 103 | 104 | – | – | inactive
CG14237 | SID104202596 | 103 | 143 | – | – | inactive
hig | SID104187420 | 119 | 108 | 78.1 | 119 | inactive
hig | SID104202186 | 98.1 | 99 | – | – | inactive
hig | SID104202258 | 123 | 164 | – | – | inactive
Lpin | SID104187033 | 176 | 181 | – | – | inactive
CG2887 | SID104198027 | 78.8 | 97.7 | – | – | inactive
CG13998 | SID104182122 | 217 | 112 | – | – | inactive
CG13426 | SID104186180 | 148 | 154 | – | – | inactive
